{"sequences": {"note": "By UniProt entry, the sequences of proteins in these tests, tags left out. Where a name states a change or a piece, a line headed by the entry shows the natural chain unless it says otherwise.", "UniProt P05740": "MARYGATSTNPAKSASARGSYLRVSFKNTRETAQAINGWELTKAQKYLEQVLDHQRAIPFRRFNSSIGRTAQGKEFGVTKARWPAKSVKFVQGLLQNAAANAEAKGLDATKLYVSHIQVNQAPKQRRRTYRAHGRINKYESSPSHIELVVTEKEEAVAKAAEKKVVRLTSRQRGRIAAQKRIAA", "UniProt P14126": "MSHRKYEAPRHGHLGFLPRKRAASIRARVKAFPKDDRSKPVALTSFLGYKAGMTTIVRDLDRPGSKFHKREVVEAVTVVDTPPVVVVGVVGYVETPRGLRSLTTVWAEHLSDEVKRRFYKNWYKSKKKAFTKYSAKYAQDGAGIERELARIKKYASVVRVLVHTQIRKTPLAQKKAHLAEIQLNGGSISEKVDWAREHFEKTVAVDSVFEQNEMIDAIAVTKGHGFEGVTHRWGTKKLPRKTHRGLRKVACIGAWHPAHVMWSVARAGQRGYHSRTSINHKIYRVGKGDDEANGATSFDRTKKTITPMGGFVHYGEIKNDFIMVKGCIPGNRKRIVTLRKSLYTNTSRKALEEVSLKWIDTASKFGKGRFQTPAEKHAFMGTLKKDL"}, "source": "paper PMC3134442", "biological_target": "Rpl17-TAP (S. cerevisiae) (UniProt P05740)", "test": "co-IP; TAP-tagged bait from cycloheximide-treated yeast lysate captured on IgG-coupled magnetic beads, 4°C, 2 h, 50 mM Hepes-KOH pH 7.5, 140 mM KCl, 10 mM MgCl2, NP-40; eluted with TEV protease; eluate immunoblotted (anti-Rpl3, anti-Egd2, anti-TAP)", "note": "No constants are given. Whether binding was seen depends on the method and setting. In cells and extracts the contact can be indirect. Binding can be weak; no strength is given.", "data": [{"substance": "ribosomal protein Rpl3 (from UniProt P14126 1-387)", "values": [{"measurement": "binding", "value": "binds"}]}]}
